{"source": "PubChem BioAssay AID686937 (Drosophila RNAi Screening Center, 2013)", "assay": "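Knock-downs that reduce output of a secreted reporter enzyme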 (primary screen)", "cells": "Drosophila S2 cells expressing secreted horseradish peroxidase", "reagent": "long dsRNA against Drosophila genes", "duration": "about 5.5 days (5 days dsRNA, then 12 h reporter induction)", "conditions": "reporter expression induced after 5 days of dsRNA, read 12 h later; inducer not stated", "measured": "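After 5 days of dsRNA and 12 h of reporter induction, medium peroxidase read by chemiluminescence and scored as per-plate z-score; higher values mean more reporter released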", "reading the numbers": "z-score: higher = more reporter secreted into medium", "note": "The screen tested about 23,000 reagents; below is a random part of those that have a named target and a result. 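Reduced-secretion tags in replicate 1 do not always agree with the z-scores; no criterion for assigning the tags was given.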 Names joined by + are all predicted targets of the reagent. Not all columns of the deposit are shown. Not stated in the record: the amount of reagent."}
{"Target gene": "CG2017", "amplicon": "DRSC12293", "z-score, replicate 1": 0.46}
{"Target gene": "Fer2LCH (Ferritin 2 light chain homologue)", "amplicon": "DRSC16672", "z-score, replicate 1": 0.39}
{"Target gene": "CG18135", "amplicon": "DRSC10295", "z-score, replicate 1": 0.12}
{"Target gene": "Cdc42 (Cell division cycle 42)", "amplicon": "DRSC20228", "z-score, replicate 1": 0.06}
{"Target gene": "unc80 (uncoordinated 80)", "amplicon": "DRSC15329", "z-score, replicate 1": 0.35}
{"Target gene": "Ak2 (Adenylate kinase 2)", "amplicon": "DRSC04043", "z-score, replicate 1": -0.11}
{"Target gene": "Der-2 (Derlin-2)", "amplicon": "DRSC15021", "z-score, replicate 1": -0.11}
{"Target gene": "Rtnl1 (Reticulon-like1)", "amplicon": "DRSC00851", "z-score, replicate 1": 0.45}
{"Target gene": "Rtnl1 (Reticulon-like1)", "amplicon": "DRSC02684", "z-score, replicate 1": 0.36}
{"Target gene": "Rtnl1 (Reticulon-like1)", "amplicon": "DRSC03122", "z-score, replicate 1": 0.38}
{"Target gene": "Rtnl1 (Reticulon-like1)", "amplicon": "DRSC21698", "z-score, replicate 1": -0.29}
{"Target gene": "Cpr51A (Cuticular protein 51A)", "amplicon": "DRSC05969", "z-score, replicate 1": 0.13}
{"Target gene": "E(spl)m2-BFM (Enhancer of split m2, Bearded family member)", "amplicon": "DRSC16991", "z-score, replicate 1": -1.33}
{"Target gene": "Tango6 (Transport and Golgi organization 6)", "amplicon": "DRSC02671", "z-score, replicate 1": -1.96, "phenotype, replicate 1": "reduced secretion"}
{"Target gene": "CG12078", "amplicon": "DRSC08242", "z-score, replicate 1": 0.3}
{"Target gene": "CG13138", "amplicon": "DRSC02235", "z-score, replicate 1": -0.14}
{"Target gene": "Tim17a2", "amplicon": "DRSC12252", "z-score, replicate 1": 0.54}
{"Target gene": "CG9921", "amplicon": "DRSC20220", "z-score, replicate 1": -1.26}
{"Target gene": "CG9372", "amplicon": "DRSC11068", "z-score, replicate 1": -0.14}
{"Target gene": "CG4133", "amplicon": "DRSC00639", "z-score, replicate 1": -0.38}
{"Target gene": "RpL37-1 (Ribosomal protein L37-1)", "amplicon": "DRSC20149", "z-score, replicate 1": 0.32, "phenotype, replicate 1": "reduced secretion"}
{"Target gene": "RpL37-1 (Ribosomal protein L37-1)", "amplicon": "DRSC21646", "z-score, replicate 1": -1.64, "phenotype, replicate 1": "reduced secretion"}
{"Target gene": "CG15822", "amplicon": "DRSC08482", "z-score, replicate 1": -0.1}
{"Target gene": "CG15822", "amplicon": "DRSC08483", "z-score, replicate 1": 0.22}
{"Target gene": "CG44836", "amplicon": "DRSC09915", "z-score, replicate 1": 0.35}
{"Target gene": "CG6628", "amplicon": "DRSC10679", "z-score, replicate 1": 0.37}
{"Target gene": "CG6163", "amplicon": "DRSC10595", "z-score, replicate 1": 0.49}
{"Target gene": "asRNA:CR31084 (antisense RNA:CR31084)", "amplicon": "DRSC21649", "z-score, replicate 1": -0.68}
{"Target gene": "SCCRO (Squamous cell carcinoma-related oncogene)", "amplicon": "DRSC10844", "z-score, replicate 1": -0.19}
{"Target gene": "CG43367", "amplicon": "DRSC08299", "z-score, replicate 1": 0.26}
{"Target gene": "CG43367", "amplicon": "DRSC08301", "z-score, replicate 1": 0.06}
{"Target gene": "CG43367", "amplicon": "DRSC08309", "z-score, replicate 1": -0.59}
{"Target gene": "Cht10 (Chitinase 10)", "amplicon": "DRSC03766", "z-score, replicate 1": 0.04}
{"Target gene": "Cht10 (Chitinase 10)", "amplicon": "DRSC03767", "z-score, replicate 1": 0.18}
{"Target gene": "Cht10 (Chitinase 10)", "amplicon": "DRSC03768", "z-score, replicate 1": 0.09}
{"Target gene": "Hsp60D (Heat shock protein 60D)", "amplicon": "DRSC02543", "z-score, replicate 1": 0.74}
{"Target gene": "obst-A (obstructor-A)", "amplicon": "DRSC20543", "z-score, replicate 1": 0.26}
{"Target gene": "inaF-B", "amplicon": "DRSC18903", "z-score, replicate 1": 0.32}
{"Target gene": "Or42a (Odorant receptor 42a)", "amplicon": "DRSC04912", "z-score, replicate 1": 0.2}
{"Target gene": "Pal1 + Pdrg1", "amplicon": "DRSC06587", "z-score, replicate 1": 0.17}
